Experimental data taken from publication doi:10.1101/2021.12.07.471666.
Results are given in words; binding and its absence hold for the method and conditions named. Binding seen in cells or lysates may run through a third protein. Some results given as binding are weak or reduced against the parent protein; the word gives no strength.

Chains of the proteins cited; added tags and fusions are not shown.
UniProt P06730: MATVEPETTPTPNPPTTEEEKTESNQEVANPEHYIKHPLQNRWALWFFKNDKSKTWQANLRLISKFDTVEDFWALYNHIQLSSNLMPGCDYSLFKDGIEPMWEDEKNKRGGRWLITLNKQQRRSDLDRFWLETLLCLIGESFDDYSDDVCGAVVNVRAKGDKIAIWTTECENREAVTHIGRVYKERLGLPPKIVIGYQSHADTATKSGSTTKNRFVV

Tests used:
[1] = molecular target: eIF4E in eIF4E-overexpressing NOMO-1 cells (MSCV-pgk-GFP-eIF4E wildtype, not a GFP fusion) (UniProt P06730); assay: co-IP
[2] = molecular target: eukaryotic translation initiation factor eIF4E (endogenous, nuclear, U2OS) (human (endogenous in U2OS)) (UniProt P06730); assay: co-IP

binding [1]: binds
binding [2]: binds
B1: PRPF6 (protein, UniProt O94906 1-941)
chain: MNKKKKPFLGMPAPLGYVPGLGRGATGFTTRSDIGPARDANDPVDDRHAPPGKRTVGDQMKKNQAADDDDEDLNDTNYDEFNGYAGSLFSSGPYEKDDEEADAIYAALDKRMDERRKERREQREKEEIEKYRMERPKIQQQFSDLKRKLAEVTEEEWLSIPEVGDARNKRQRNPRYEKLTPVPDSFFAKHLQTGENHTSVDPRQTQFGGLNTPYPGGLNTPYPGGMTPGLMTPGTGELDMRKIGQARNTLMDMRLSQVSDSVSGQTVVDPKGYLTDLNSMIPTHGGDINDIKKARLLLKSVRETNPHHPPAWIASARLEEVTGKLQVARNLIMKGTEMCPKSEDVWLEAARLQPGDTAKAVVAQAVRHLPQSVRIYIRAAELETDIRAKKRVLRKALEHVPNSVRLWKAAVELEEPEDARIMLSRAVECCPTSVELWLALARLETYENARKVLNKARENIPTDRHIWITAAKLEEANGNTQMVEKIIDRAITSLRANGVEINREQWIQDAEECDRAGSVATCQAVMRAVIGIGIEEEDRKHTWMEDADSCVAHNALECARAIYAYALQVFPSKKSVWLRAAYFEKNHGTRESLEALLQRAVAHCPKAEVLWLMGAKSKWLAGDVPAARSILALAFQANPNSEEIWLAAVKLESENDEYERARRLLAKARSSAPTARVFMKSVKLEWVQDNIRAAQDLCEEALRHYEDFPKLWMMKGQIEEQKEMMEKAREAYNQGLKKCPHSTPLWLLLSRLEEKIGQLTRARAILEKSRLKNPKNPGLWLESVRLEYRAGLKNIANTLMAKALQECPNSGILWSEAIFLEARPQRRTKSVDALKKCEHDPHVLLAVAKLFWSQRKITKAREWFHRTVKIDSDLGDAWAFFYKFELQHGTEEQQEEVRKRCESAEPRHGELWCAVSKDIANWQKKIGDILRLVAGRIKNTF
